US20120266268A1
Results are given in words; binding and its absence hold for the method and conditions named. Some binding calls cover weakened binding; strength is not graded here.

By UniProt entry, the sequences of proteins in these tests, tags left out. Where a name states a change or a piece, a line headed by the entry shows the natural chain unless it says otherwise.
UniProt Q9C9K7: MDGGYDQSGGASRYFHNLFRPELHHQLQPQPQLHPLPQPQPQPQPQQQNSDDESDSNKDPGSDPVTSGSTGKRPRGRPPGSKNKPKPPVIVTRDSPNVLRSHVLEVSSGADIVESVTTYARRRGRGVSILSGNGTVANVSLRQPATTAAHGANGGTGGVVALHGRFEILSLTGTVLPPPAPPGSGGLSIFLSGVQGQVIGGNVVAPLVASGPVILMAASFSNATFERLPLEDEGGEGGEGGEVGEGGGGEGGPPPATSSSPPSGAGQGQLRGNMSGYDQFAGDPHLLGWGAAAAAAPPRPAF
UniProt Q9S7C9: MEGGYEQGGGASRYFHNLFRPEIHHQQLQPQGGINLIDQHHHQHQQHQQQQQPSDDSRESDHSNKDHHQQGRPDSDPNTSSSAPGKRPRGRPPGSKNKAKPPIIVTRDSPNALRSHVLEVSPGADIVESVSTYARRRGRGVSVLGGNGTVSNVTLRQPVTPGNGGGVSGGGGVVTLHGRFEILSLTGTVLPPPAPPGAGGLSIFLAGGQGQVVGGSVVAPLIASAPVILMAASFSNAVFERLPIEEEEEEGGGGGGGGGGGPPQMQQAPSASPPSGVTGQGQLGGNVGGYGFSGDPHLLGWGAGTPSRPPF

Assays:
Assay in all cases: BiFC (split YFP), onion epidermal cells
[1] = biological target: Arabidopsis thaliana SOB3 (SUPPRESSOR OF PHYTOCHROME B-4 #3) protein (Arabidopsis thaliana) (UniProt Q9C9K7)
[2] = biological target: Arabidopsis thaliana ESC (ESCAROLA) protein (Arabidopsis thaliana) (UniProt Q9S7C9)
[3] = biological target: sob3-6 protein (Arabidopsis thaliana SOB3 with R77>H in the AT-hook core) (Arabidopsis thaliana) (UniProt Q9C9K7)

binding [1]: binds
binding [2]: binds
binding [3]: binds
Substance: sob3-6 protein (Arabidopsis thaliana SOB3 with R77>H in the AT-hook core) (from UniProt Q9C9K7 1-302)
